In patent publication US20110195420A1, “ESTROGEN AND ANTI-ESTROGEN MARKER GENES” (Merck Patent Gesellschaft, priority 2009, published 2011):
Some of these results come from one statement about several compounds together.

Test system: Ishikawa plus cells
Assay: Illumina global gene expression profiling in Ishikawa plus cells after 24 h EAC treatment (ANOVA, correlation, K-Means clustering)
Type: cell-based, human
Conditions: low dose
Method: Cells were routinely maintained in DMEM/F12 with L-Glutamine and 15 mM Hepes supplemented with 10% (v/v) FBS, 1% (v/v) penicillin (10 kU/ml)-streptomycin (10 mg/ml) solution, 0.1% (v/v) Gentamicin (50 mg/ml) and 1 mM sodium pyruvate at 37° C. and 5% CO2 in culture flasks. 5×10^5 cells were seeded onto 6-well plates in phenol-red free DMEM/F12 with L-Glutamine and 15 mM Hepes containing 10% (v/v) dextran-coated charcoal treated FBS, sodium pyruvate and antibiotics.
All experiments were performed three times with cells of passages 3-25.
After a 24 h treatment period cells were rinsed with PBS (Gibco Invitrogen, Karlsruhe, Germany), harvested and total RNA was extracted using the RNeasy Mini Kit (QIAGEN, Hilden, Germany) as described by the manufacturer, including the QIAshredder spin column procedure and on-column RNase-free DNase digestion. RNA was eluted with 40 μl of RNA-Storage solution (Ambion, Darmstadt, Germany). RNA quality control and quantification was determined using a NanoDrop® spectrophotometer (Kisker, Steinfurt, Germany) and 2100 Agilent Bio-Analyzer (Agilent Technologies, Waldbronn, Germany). […]
Data were uploaded into Genedata's Expressionist® Analyst software (Genedata AG, Basel, Switzerland) for data normalization and statistical analysis. […] After normalization fold-regulations for each individual compound treatment were calculated. […]

SMILES: C[C@H]1CCCC(=O)CCC/C=C/c2cc(O)cc(O)c2C(=O)O1 [ZEA, Zearalenone]
- share of anti-estrogen-like up- and down-regulated genes (clusters 5 and 6) with similar expression for GEN and ZEA: more than 50%
